Experimental findings from publication doi:10.1101/2024.10.13.618066 are described below.

Protein sequences, listed by entry. Tags and fused reporters are not part of them. Lines headed by an entry give the natural chain unless they say otherwise; changes in a name come on top.
UniProt A6NHR9, whole entry: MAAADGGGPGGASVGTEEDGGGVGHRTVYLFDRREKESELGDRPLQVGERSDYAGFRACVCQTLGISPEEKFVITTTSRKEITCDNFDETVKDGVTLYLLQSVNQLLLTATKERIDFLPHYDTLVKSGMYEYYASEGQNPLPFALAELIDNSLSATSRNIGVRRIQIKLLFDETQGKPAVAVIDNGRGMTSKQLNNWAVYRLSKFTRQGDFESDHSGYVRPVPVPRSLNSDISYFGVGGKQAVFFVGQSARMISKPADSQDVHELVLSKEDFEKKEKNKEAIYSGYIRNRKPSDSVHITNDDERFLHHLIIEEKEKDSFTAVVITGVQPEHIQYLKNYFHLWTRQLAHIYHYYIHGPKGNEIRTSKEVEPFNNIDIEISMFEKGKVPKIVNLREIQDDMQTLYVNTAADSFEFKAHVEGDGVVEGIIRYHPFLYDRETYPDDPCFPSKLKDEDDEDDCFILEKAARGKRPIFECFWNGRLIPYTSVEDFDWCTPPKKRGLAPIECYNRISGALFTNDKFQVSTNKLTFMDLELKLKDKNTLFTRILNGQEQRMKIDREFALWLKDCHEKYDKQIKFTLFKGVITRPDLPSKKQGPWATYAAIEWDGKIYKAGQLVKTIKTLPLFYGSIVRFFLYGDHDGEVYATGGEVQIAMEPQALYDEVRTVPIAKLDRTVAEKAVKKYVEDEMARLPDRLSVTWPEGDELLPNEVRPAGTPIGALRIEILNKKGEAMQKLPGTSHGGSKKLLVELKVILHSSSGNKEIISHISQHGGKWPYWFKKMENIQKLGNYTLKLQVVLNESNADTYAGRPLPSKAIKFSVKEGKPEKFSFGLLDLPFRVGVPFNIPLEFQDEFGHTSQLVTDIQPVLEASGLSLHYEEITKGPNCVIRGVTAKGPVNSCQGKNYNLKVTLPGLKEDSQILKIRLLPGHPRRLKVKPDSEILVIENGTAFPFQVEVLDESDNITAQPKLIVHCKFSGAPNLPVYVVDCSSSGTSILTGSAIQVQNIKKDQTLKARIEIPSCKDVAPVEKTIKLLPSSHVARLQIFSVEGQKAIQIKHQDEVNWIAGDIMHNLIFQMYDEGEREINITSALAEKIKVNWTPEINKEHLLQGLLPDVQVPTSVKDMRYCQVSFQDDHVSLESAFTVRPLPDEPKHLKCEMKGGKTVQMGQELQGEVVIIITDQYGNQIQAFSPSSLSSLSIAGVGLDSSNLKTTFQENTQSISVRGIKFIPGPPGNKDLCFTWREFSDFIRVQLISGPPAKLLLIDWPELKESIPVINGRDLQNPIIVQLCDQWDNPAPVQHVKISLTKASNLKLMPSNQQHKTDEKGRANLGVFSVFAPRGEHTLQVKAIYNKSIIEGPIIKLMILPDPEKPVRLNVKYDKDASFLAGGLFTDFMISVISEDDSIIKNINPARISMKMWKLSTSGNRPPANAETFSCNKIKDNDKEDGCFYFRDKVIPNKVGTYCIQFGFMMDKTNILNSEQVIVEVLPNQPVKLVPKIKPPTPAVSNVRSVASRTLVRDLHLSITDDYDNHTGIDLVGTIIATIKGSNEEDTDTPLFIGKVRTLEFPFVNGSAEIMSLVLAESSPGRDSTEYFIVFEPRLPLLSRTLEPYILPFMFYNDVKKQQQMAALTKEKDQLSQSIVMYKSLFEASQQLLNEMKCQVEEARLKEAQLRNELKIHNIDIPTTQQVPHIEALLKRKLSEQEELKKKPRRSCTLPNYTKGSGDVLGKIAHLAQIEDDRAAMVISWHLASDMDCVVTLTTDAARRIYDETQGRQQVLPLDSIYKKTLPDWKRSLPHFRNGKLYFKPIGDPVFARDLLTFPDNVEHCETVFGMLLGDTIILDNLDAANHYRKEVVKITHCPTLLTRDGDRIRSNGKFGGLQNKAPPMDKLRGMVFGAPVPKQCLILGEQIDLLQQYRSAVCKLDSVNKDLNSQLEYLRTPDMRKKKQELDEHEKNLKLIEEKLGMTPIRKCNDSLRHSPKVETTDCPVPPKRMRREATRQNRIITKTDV
UniProt Q13263, whole entry: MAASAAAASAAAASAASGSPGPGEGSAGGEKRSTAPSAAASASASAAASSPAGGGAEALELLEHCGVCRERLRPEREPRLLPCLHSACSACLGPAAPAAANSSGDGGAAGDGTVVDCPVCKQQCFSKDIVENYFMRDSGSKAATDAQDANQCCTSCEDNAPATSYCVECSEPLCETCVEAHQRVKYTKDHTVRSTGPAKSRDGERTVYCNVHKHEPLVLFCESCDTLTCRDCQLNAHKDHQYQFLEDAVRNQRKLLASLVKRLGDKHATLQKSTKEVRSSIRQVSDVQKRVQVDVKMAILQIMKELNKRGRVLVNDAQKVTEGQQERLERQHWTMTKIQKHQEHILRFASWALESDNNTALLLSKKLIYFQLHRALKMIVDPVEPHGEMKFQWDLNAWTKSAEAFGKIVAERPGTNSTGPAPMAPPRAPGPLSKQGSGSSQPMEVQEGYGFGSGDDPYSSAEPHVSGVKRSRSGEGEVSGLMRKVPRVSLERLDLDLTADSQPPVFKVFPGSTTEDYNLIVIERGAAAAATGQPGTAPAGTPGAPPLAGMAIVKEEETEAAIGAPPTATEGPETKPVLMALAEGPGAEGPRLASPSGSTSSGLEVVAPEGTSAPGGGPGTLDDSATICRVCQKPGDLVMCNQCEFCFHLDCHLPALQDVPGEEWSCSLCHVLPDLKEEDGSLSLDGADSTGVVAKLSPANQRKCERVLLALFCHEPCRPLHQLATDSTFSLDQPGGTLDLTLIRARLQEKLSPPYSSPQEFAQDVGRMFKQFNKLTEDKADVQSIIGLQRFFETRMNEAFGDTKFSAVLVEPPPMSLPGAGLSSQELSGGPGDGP

Like-named read-outs stand apart in the source and are kept apart here. No constants are given. Whether binding was seen depends on the method and setting. In cells and extracts the contact can be indirect. Some results given as binding are weak or reduced against the parent protein; the word gives no strength.

Assay in all cases: co-IP
For assay [1], the target named is 3xHA-SMCHD1 (wild type) (human) (UniProt A6NHR9).
The target of assay [2] is 3xHA-SMCHD1 K1374-2002R (human) (UniProt A6NHR9).
The target of assay [3] is GFP-SMCHD1 (wild type) (human) (UniProt A6NHR9).
Assay [4] has as its target 3xHA-SMCHD1 K1374R (human) (UniProt A6NHR9).
The target in assay [5] is GFP-SMCHD1-K1374R (human) (UniProt A6NHR9).
In assay [6] the target is 3xHA-SMCHD1 (wild type) (human) (UniProt A6NHR9). This is another data set of the same source.
The target of assay [7] is 3xHA-tagged SMCHD1-6xK>R variant (human) (UniProt A6NHR9).
Assay [8] deals with GFP-SMCHD1 (wild type) (human) (UniProt A6NHR9). The source holds these as a separate data set.
Assay [9] concerns the target GFP-TRIM28 (UniProt Q13263).
The target of assay [10] is SMCHD1 (endogenous, myocytes) (human (endogenous in immortalized myocytes)) (UniProt A6NHR9).

Take “GFP-SMCHD1 (wild type) (from UniProt A6NHR9 1-2005)”: the binding result in assay [1] and in [2] was “binds” each time.
For the substance “GFP-SMCHD1 K1374-2002R (from UniProt A6NHR9 1-2005)”, the binding entry in [1] and in assay [2] was “binds” each time.
For “HNRNPK (endogenous, HEK293T, HeLa and U2OS cells) (from UniProt P61978 1-463)”, the binding entry in [3], in assay [4], in [5], in assay [6], in assay [7] and in [8] was “binds” throughout. In addition, the binding result in [9] is “binds”.
Turning to “HNRNPK (endogenous, myocytes) (from UniProt P61978 1-463)”, in assay [10], the binding entry is “binds”.
Take “SMCHD1 (endogenous, HEK293T cells) (from UniProt A6NHR9 1-2005)”: the binding result in assay [9] is reported as “binds”.
In the case of “TRIM28 (endogenous, HEK293T, HeLa and U2OS cells) (from UniProt Q13263 1-835)”, the binding entry in assay [3], in [4], in assay [5], in assay [6], in assay [7] and in assay [8] was “binds” in each case.
In the case of “TRIM28 (endogenous, myocytes) (from UniProt Q13263 1-835)”, the binding entry in [10] is given as “binds”.
